These are yes or no findings as the source states them, for the method shown. Binding seen in cells or lysates may run through a third protein. A yes stands for co-enrichment or nearness to the bait. Other partners may have been found.
Molecular target: GST-tagged Leishmania donovani profilin (Leishmania donovani)
Assay: affinity purification with mass spectrometry; purified GST-LdPfn or GST alone on glutathione-Sepharose beads, incubated with 2 mg clear lysate of L. donovani promastigotes overnight at 4°C, five washes with 1x PBS, eluted by boiling in SDS loading buffer, SDS-PAGE, LC-MS (Orbitrap Fusion); three biological replicates; only the target purified

By UniProt entry, the sequences of proteins in these tests, tags left out. Where a name states a change or a piece, a line headed by the entry shows the natural chain unless it says otherwise.
UniProt E9BBJ9: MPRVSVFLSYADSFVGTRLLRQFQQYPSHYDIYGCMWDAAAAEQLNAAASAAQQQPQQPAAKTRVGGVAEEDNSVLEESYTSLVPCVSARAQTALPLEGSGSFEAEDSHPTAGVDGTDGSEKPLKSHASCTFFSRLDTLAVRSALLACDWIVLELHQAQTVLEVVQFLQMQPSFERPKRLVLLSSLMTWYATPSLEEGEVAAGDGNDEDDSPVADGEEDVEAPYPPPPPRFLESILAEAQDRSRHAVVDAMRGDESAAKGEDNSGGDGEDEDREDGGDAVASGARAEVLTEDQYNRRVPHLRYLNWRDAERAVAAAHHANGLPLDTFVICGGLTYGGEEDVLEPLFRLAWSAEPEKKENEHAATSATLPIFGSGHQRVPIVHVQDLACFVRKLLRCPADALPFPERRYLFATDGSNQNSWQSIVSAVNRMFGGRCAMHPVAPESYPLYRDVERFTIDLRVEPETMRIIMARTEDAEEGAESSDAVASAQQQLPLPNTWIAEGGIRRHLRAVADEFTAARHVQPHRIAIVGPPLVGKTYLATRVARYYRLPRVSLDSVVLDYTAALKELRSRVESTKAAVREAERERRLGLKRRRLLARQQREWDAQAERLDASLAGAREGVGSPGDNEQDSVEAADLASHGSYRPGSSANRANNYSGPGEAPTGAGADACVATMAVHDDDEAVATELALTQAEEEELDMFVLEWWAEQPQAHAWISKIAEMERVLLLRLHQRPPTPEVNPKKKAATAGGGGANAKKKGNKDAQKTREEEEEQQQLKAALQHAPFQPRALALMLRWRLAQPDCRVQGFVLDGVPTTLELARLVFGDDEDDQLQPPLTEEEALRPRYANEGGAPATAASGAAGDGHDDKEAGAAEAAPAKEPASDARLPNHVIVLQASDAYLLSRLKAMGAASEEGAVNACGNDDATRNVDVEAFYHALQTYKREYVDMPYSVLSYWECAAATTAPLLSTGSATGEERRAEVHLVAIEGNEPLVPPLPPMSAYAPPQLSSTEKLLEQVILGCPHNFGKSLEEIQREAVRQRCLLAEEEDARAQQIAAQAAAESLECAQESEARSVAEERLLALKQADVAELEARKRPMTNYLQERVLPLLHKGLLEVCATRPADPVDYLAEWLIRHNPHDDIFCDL
UniProt C6KJC7: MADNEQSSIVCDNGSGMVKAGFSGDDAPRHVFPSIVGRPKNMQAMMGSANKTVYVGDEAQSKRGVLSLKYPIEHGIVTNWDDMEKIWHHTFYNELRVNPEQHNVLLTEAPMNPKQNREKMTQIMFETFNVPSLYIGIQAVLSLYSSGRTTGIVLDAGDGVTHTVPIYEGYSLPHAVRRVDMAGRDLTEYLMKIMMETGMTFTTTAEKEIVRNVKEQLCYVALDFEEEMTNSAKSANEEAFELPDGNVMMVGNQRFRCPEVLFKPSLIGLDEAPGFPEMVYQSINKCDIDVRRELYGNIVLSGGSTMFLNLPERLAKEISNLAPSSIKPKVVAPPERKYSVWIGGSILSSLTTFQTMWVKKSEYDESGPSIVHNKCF
UniProt A0A3Q8IIX7: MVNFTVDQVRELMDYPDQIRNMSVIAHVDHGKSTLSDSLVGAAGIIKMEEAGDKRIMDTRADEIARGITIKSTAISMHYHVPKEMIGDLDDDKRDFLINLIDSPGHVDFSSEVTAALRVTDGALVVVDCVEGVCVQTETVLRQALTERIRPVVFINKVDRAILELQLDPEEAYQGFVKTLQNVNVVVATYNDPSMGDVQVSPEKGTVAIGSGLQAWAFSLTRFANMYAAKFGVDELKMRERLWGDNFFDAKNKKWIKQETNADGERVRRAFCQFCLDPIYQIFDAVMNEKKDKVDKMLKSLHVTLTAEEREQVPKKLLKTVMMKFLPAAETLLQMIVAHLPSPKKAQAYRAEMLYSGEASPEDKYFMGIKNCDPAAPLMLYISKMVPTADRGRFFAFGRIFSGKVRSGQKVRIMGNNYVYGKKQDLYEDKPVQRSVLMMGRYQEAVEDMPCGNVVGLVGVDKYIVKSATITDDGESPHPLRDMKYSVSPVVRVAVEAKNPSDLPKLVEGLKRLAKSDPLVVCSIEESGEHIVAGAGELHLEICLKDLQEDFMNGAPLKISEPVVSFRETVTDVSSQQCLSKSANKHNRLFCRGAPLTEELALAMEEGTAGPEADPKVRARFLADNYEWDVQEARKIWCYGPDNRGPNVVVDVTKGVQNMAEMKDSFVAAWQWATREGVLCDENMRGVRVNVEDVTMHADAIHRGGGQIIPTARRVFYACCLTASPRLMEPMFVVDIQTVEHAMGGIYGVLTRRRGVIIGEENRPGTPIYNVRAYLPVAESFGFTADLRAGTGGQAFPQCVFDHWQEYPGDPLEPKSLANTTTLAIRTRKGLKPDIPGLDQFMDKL
UniProt A0A3Q8IGZ3: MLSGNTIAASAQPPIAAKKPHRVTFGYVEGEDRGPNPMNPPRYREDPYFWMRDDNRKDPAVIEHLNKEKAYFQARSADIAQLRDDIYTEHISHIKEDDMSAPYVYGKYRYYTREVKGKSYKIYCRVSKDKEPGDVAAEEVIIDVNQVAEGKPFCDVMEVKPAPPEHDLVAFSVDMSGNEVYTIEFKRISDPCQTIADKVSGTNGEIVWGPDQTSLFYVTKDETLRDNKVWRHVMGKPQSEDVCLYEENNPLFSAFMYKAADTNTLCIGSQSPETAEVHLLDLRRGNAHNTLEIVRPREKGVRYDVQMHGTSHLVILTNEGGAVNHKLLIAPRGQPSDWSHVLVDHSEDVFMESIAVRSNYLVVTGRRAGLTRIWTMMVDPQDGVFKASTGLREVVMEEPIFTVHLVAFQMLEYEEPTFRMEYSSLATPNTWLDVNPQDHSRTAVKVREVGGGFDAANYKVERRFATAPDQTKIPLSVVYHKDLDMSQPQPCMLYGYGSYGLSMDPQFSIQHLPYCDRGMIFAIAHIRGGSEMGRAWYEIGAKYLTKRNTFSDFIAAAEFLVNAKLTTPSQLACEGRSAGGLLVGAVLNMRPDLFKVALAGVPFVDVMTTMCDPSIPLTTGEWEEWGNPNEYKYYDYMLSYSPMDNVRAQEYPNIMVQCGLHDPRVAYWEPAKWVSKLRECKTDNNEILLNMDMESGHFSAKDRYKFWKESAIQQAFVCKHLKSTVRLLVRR
UniProt A0A3S7WP65: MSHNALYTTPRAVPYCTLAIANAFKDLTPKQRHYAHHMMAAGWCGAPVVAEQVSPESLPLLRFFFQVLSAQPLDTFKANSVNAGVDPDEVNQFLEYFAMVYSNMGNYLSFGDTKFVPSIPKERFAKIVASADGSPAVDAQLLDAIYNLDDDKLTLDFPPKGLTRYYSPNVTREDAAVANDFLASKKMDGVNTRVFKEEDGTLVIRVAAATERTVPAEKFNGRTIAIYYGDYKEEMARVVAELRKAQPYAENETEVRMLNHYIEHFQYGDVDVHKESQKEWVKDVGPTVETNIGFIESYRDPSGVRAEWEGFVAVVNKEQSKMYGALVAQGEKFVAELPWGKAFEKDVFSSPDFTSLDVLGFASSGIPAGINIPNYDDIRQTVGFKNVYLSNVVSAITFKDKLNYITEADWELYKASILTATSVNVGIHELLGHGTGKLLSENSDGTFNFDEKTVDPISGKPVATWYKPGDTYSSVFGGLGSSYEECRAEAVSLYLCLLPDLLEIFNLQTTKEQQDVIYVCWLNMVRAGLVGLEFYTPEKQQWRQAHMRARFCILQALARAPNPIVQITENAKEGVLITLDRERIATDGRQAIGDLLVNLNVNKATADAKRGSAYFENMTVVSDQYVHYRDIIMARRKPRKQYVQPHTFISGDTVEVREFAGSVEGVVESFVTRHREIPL
UniProt A0A3Q8IDU4: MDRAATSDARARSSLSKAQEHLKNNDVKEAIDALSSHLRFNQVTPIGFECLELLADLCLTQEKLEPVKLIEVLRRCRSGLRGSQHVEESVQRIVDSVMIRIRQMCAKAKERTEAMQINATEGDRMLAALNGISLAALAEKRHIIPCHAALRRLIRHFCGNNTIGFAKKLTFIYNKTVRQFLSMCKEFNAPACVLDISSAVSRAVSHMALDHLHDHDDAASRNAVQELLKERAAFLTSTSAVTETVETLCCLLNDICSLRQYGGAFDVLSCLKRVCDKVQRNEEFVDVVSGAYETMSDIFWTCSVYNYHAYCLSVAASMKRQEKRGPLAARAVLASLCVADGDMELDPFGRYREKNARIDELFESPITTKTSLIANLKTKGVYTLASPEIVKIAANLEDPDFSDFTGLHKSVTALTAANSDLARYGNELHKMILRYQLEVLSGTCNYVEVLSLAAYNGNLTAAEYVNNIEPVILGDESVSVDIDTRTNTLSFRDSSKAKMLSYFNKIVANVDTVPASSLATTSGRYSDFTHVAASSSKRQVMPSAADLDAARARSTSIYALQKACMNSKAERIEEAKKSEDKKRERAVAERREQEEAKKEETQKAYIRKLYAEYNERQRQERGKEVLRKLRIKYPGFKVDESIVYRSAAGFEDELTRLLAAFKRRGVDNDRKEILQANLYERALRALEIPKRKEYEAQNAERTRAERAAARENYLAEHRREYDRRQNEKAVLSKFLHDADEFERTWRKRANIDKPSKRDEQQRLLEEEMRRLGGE
UniProt A0A3S5H6R7: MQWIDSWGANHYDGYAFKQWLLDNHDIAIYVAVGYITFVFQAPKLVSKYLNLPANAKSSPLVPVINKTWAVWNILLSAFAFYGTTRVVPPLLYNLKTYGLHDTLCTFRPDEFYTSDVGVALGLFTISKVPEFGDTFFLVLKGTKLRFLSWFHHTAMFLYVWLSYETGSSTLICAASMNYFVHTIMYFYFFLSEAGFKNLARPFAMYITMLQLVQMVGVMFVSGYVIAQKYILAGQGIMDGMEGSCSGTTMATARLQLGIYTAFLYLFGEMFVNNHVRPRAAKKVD
UniProt A0A3S5H503: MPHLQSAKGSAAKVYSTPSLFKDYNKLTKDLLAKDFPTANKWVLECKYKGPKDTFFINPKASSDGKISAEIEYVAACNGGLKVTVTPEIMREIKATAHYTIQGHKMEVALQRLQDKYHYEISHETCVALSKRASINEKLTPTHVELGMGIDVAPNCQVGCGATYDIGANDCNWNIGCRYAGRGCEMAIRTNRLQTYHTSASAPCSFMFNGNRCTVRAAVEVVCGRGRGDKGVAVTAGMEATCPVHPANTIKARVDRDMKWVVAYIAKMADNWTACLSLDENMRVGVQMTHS
UniProt A0A3Q8ID36: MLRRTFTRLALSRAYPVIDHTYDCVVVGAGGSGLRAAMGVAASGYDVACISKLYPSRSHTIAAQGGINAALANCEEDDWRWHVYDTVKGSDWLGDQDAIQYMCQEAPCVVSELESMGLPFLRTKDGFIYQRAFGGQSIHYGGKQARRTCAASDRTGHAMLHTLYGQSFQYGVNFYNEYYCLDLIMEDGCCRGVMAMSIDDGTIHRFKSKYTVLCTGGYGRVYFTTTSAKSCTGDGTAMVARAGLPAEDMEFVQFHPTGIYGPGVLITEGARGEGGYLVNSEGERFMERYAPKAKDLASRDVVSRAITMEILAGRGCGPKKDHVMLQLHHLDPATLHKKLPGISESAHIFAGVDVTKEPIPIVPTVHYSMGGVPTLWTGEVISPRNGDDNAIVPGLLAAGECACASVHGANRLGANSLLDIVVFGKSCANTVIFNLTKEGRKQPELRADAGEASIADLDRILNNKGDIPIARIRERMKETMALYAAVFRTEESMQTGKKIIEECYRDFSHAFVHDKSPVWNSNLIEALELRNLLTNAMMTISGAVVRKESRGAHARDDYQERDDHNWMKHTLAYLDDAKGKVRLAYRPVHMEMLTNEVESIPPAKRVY
UniProt A0A3S5H7D7: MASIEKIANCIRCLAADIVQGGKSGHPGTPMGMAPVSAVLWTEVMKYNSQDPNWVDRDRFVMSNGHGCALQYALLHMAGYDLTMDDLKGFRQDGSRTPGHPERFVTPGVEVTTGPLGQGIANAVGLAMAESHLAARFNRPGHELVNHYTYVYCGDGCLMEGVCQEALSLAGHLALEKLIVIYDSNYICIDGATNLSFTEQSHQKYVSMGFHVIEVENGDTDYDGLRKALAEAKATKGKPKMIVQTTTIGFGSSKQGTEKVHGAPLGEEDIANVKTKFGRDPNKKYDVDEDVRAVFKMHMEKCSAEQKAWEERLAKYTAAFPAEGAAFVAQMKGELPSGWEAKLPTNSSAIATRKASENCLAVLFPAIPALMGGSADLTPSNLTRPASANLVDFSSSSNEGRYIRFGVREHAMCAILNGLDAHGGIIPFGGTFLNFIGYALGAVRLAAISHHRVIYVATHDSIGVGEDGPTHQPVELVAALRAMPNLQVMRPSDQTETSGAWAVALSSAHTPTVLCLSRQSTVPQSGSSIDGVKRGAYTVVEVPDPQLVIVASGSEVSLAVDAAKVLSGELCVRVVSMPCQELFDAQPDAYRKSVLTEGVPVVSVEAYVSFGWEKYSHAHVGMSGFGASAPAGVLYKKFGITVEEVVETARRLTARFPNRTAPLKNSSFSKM

| Substance | binding |
| --- | --- |
| AAA domain/Dpy-30 motif-containing protein, putative (from UniProt E9BBJ9) | binds |
| ATP-dependent RNA helicase, putative (from UniProt E9BSI5) | binds |
| Actin (from UniProt C6KJC7) | binds |
| Elongation factor 2 (from UniProt A0A3Q8IIX7) | binds |
| Eukaryotic initiation factor 4A-1 (from UniProt A0A3S5H4X0) | binds |
| Fatty acid elongase, putative (LDBPK_140700.1) (from UniProt A0A3S5H6R8) | binds |
| Gamma-tubulin complex component 3-like protein (from UniProt A0A3Q8IKN4) | binds |
| Long-chain fatty Acyl CoA synthetase, putative (from UniProt A0A451EJM7) | binds |
| Membrane-bound acid phosphatase 2, putative (from UniProt A0A3Q8IR23) | binds |
| Oligopeptidase b (OBP) (from UniProt A0A3Q8IGZ3) | binds |
| Paraflagellar rod protein 2C (from UniProt A0A3Q8IAP5) | binds |
| Proteasome regulatory non-ATPase subunit, putative (from UniProt A0A3S7X246) | binds |
| Ubiquitin hydrolase, putative (from UniProt A0A3Q8IIK1) | binds |

Second part, the substance after the results:

| binding | Substance |
| --- | --- |
| binds | Aconitase, putative (from UniProt A0A3Q8IAZ4) |
| binds | Dihydrolipoamide acetyltransferase precursor, putative (from UniProt A0A3Q8IJE7) |
| binds | Dipeptidyl-peptidase III, putative (from UniProt A0A3S7WP65) |
| binds | Eukaryotic translation initiation factor 3 subunit a (from UniProt A0A3Q8IDU4) |
| binds | Fatty acid elongase, putative (LDBPK_140670.1) (from UniProt A0A3S5H6R7) |
| binds | Glyceraldehyde-3- phosphate dehydrogenase, cytosolic (from UniProt A0A3Q8IJ37) |
| binds | Isoleucyl-tRNA synthetase, putative (from UniProt A0A3Q8IPR2) |
| binds | Luminal binding protein 1 (BiP), putative (from UniProt A0A3S7X1F5) |
| binds | Mitochondrial outer membrane protein porin, putative (from UniProt A0A3S5H503) |
| binds | Phosphatidylethanolamine-methyltransferase-like protein (from UniProt A0A3Q8IF60) |
| binds | Proteasome regulatory non-ATPase subunit 2, putative (from UniProt A0A3Q8IEW8) |
| binds | Succinate dehydrogenase [ubiquinone] flavoprotein subunit, mitochondrial (from UniProt A0A3Q8ID36) |
| binds | Transketolase (from UniProt A0A3S5H7D7) |
| binds | U5 small nuclear ribonucleoprotein component, putative (from UniProt A0A3Q8IFJ7) |

Reference: paper PMC8939790
